Laboratory results reported in PubChem BioAssay AID504444 (National Center for Advancing Translational Sciences (NCATS), 2011).
Hit rate of the full screen: of about 360,000 compounds, about 7,500 (2.1%) were called active. The inconclusive results got no clear call from the source; some entries with a clear call stand among them for comparison. The call rests on the fitted dose curve; in most records, active means well fitted inhibition curve with a large enough effect; inconclusive means small, poorly fitted or top-dose-only effect, or effect the other way; inactive means flat fitted curve, though single readings scatter. A potency beside an inconclusive call is a rough fit, not a confirmed value.

Experiment: Nrf2 qHTS screen for inhibitors; further: nearly all actives have a fitted effect of over 60% in size
Details: A549 ARE-Fluc reporter, luciferase luminescence, 18-24 h; series mostly up to 46 µM
How it was run: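 A549 ARE_Fluc cells (5000/well, 5% FBS OPTI-MEM) pre-incubated 2 h, then treated with compounds 18-24 h at 37C/5% CO2 in concentration-response. CellTiter-Fluor viability read first; BugLite luciferase luminescence after 15 min at room temperature gives Nrf2 activity.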
Potency means the concentration at half of the fitted maximal effect.

| SMILES | Potency |
| --- | --- |
| O=S(=O)(NCCOCC(F)(F)F)c1ccc2oc3ccccc3c2c1 | inconclusive: 10.3 µM [falling, partial curve, poor fit] |
| COC(=O)c1cn(CC(=O)Nc2ccc(OC)cc2)c2ccccc12 | inconclusive: 23.1 µM [falling, partial curve, poor fit] |
| CSc1ccccc1C(=O)Nc1ccc(C)cc1C | inconclusive: 29.1 µM [activator, single point] |
| CCCCNC(=O)CCn1c(=O)c2cccn2c2cccnc21 | inconclusive: 23.1 µM [activator, partial curve, poor fit] |
| Cc1[nH]c(=O)nc(SCc2cccc(Cl)c2)c1C#N | inactive |
| Cc1c(NC(=O)CSCc2c(F)cccc2Cl)c(=O)n(-c2ccccc2)n1C | inconclusive: 0.231 µM [falling, full curve, poor fit] |
| COc1cc(/C=C2\SC(N3CCc4ccccc4C3)=NC2=O)cc(OC)c1OC | inactive |
| CCc1nc2ccc(C(=O)N(C)CC(=O)Nc3ccc(F)c(F)c3F)cc2nc1CC | inactive |
| Cc1ccc2nc(Cl)c(/C=N/NC(=O)CN3CCOCC3)cc2c1 | inconclusive: 2.31 µM [activator, partial curve, poor fit] |
| Oc1ccc(Br)cc1-c1nc2cnccn2c1NC1CCCC1 | inconclusive: 23.1 µM [falling, partial curve, poor fit] |
| CCCn1c(CCC(=O)Nc2ccc(C)c(Cl)c2)nc2cccnc21 | inactive |
| CCCOc1ccc(C(=O)NCc2ccco2)cc1 | inconclusive: 2.59 µM [activator, full curve, poor fit] |
| COc1cc2c(cc1NC(=O)Nc1cccc(C)c1)oc1ccccc12 | inconclusive: 5.17 µM [falling, full curve, poor fit] |
| CCCCn1c(N)c(N(CC(C)C)C(=O)COC(=O)c2ccccc2NCCO)c(=O)[nH]c1=O | inactive |
| O=C(COCc1cc(-c2ccc3c(c2)OCO3)on1)Nc1cc(C(F)(F)F)ccc1Cl | inconclusive: 25.9 µM [falling, single point] |
| COc1cccc(C(=O)Nc2ccc3ccccc3c2)c1 | inconclusive: 1.84 µM [activator, full curve] |
| CCN1CCN(CCCNC(=O)Cn2c(-c3cccs3)cc3cc(F)ccc32)CC1 | inactive |
| c1ccc(-c2noc(COc3ccc4c(c3)OCO4)n2)cc1 | inconclusive: 4.11 µM [activator, full curve] |
| COc1ccccc1-c1nnc(NC(=O)c2ccc(S(=O)(=O)N3CCCC3)cc2)o1 | inconclusive: 16.4 µM [falling, single point] |
| O=C(O)C1CCCN1c1ncnc2c1oc1ccccc12 (stereo unspecified) | inconclusive: 7.31 µM [activator, partial curve] |
| O=c1c(S(=O)(=O)c2ccccc2)cn(Cc2cccc(F)c2)c2cc(N3CCCC3)c(F)cc12 | inconclusive: 25.9 µM [falling, single point] |
| CCCCc1nc2ccccc2c(=O)n1NC(=O)c1c(O)c2ccccc2n(C)c1=O | inconclusive: 18.4 µM [falling, single point] |

| SMILES | Potency |
| --- | --- |
| C[C@]12c3[nH]c4cc(-c5ccco5)ccc4c3CCN1C(=O)[C@@H](CC(=O)NCCC1=CCCCC1)C[C@@H]2C(=O)N1CCCCC1 | inconclusive: 20.6 µM [falling, single point] |
| CC(Oc1ccc(F)cc1)C(=O)Nc1nc(-c2ccccn2)cs1 (stereo unspecified) | active: 20.6 µM |
| Cc1cccc(C2c3[nH]c4ccccc4c3CCN2C(=O)c2noc3c2CCCC3)n1 (stereo unspecified) | inconclusive: 16.4 µM [falling, partial curve, poor fit] |
| Nc1ccc2oc(-c3ccccc3Cl)cc(=O)c2c1O | inconclusive: 14.6 µM [activator, partial curve] |
| COc1ccc(-n2c(=O)c3ccccc3n(CC(=O)NC3CCCCC3)c2=O)cc1OC | inconclusive: 18.4 µM [falling, single point] |
| O=c1ncn(-c2ccc(F)cc2)c2ncccc12 | inconclusive: 6.51 µM [activator, single point] |
| CN(C)/C=C1\C(=O)N(c2ccc(Cl)cc2)CS1(=O)=O | inconclusive: 2.31 µM [activator, full curve] |
| C[C@H](CO)N1C[C@H](C)[C@H](CN(C)S(=O)(=O)c2cn(C)cn2)Oc2ccc(NC(=O)Nc3ccc(C(F)(F)F)cc3)cc2CC1=O | inconclusive: 23.1 µM [activator, single point] |
| CCOC(=O)c1sc(NC(=O)c2cccnc2)c(C#N)c1C | inactive |
| CC(C)(C)OC(=O)NCCc1nnc(SCc2ccc(Cl)cc2)o1 | inconclusive: 29.1 µM [falling, single point] |
| O=S(=O)(Nc1nc2ccccc2[nH]1)c1ccc2ccccc2c1 | inconclusive: 2.59 µM [falling, full curve, poor fit] |
| CCOC(=O)C1CCN(C(=O)c2cc(C)n(C(C)(C)C)n2)CC1 | inactive |
| CCOc1ccc(CCNC(=O)CS(=O)(=O)Cc2nc(-c3ccccc3F)oc2C)cc1 | inconclusive: 23.1 µM [falling, partial curve, poor fit] |
| O=C(Cn1c(=O)nc(-c2ccccc2)c2cc(Cl)ccc21)NCc1ccc(Cl)cc1 | inconclusive: 29.1 µM [falling, single point] |
| O=C(Nc1cnn(Cc2ccc(Cl)cc2Cl)c1)c1noc2c1CCc1ccccc1-2 | inconclusive: 1.64 µM [falling, full curve, poor fit] |
| CCCNC1=C(N(C(C)=O)c2cccc(F)c2)C(=O)c2ccccc2C1=O | inconclusive: 18.4 µM [falling, single point] |
| O=C(O)c1ccc(N2CCN(c3ccc(Cl)cc3)CC2)c([N+](=O)[O-])c1 | inconclusive: 32.6 µM [falling, partial curve, poor fit] |
| Cc1ccc(N=c2ssnc2Cl)cc1 | inconclusive: 29.1 µM [activator, single point] |
| CC1(C)CC(=O)C(C2C3=C(CC(C)(C)CC3=O)Oc3ccccc32)C(=O)C1 (stereo unspecified) | inactive |
| CC(=O)Nc1ccc(S(=O)(=O)NC2=C(N3CCN(Cc4ccccc4)CC3)C(=O)c3ccccc3C2=O)cc1 | inactive |
| COc1ccc(-c2c(C)nc(N)nc2-c2ccc(OCc3ccc(C)cc3)cc2O)cc1OC | inconclusive: 10.3 µM [falling, partial curve] |
| O=C(CCl)Nc1cc(S(=O)(=O)N2CCCCCC2)ccc1Cl | inconclusive: 16.4 µM [falling, partial curve, poor fit] |

| SMILES | Potency |
| --- | --- |
| CCc1ccc(OCC(=O)Nc2cc(-c3nc4cc(C)ccc4o3)ccc2C)cc1 | inconclusive: 2.31 µM [activator, full curve] |
| Cn1cnc2c1c(=O)n(Cc1cccc(Cl)c1)c(=O)n2C | inactive |
| COCCOC(=O)c1c(NC(=O)CNc2ccc(C)c(F)c2)sc(C(N)=O)c1C | inconclusive: 0.82 µM [falling, full curve, poor fit] |
| Cc1c(-c2ccccc2)oc2c(C(=O)N3CCN(c4ccccc4F)CC3)cccc2c1=O | inactive |
| COCC(=O)Nc1nc2ccc(S(C)(=O)=O)cc2s1 | inconclusive: 23.1 µM [activator, single point] |
| CC(C)(C)OC(=O)N1CCC[C@H]1c1nnc(SCc2ccccc2F)o1 | inactive |
| Cc1nn(-c2cc(C)c3ccccc3n2)c2c1CCC2 | inconclusive: 7.31 µM [activator, partial curve] |
| CSc1ccc(-c2c(C#N)c(N)nc3c2c(C)nn3-c2ccccc2)cc1 | inconclusive: 20.6 µM [falling, single point] |
| c1ccc2c(c1)CCN(c1ncnc3nc[nH]c13)C2 | inactive |
| CCN(CC)C(=O)[C@H]1C[C@H](CC(=O)NCCC2=CCCCC2)C(=O)N2CCc3c([nH]c4ccc(Cl)cc34)[C@]12C | inconclusive: 29.1 µM [falling, single point] |
| Cc1ccc(C)c(C(=O)C(C)OC(=O)CN2C(=O)NC3(CC(C)CC(C)(C)C3)C2=O)c1 (stereo unspecified) | inconclusive: 13 µM [falling, partial curve, poor fit] |
| O=C(Nc1ccc(S(=O)(=O)NCC2CCCO2)cc1)c1ccccc1 (stereo unspecified) | inconclusive: 0.58 µM [falling, full curve, poor fit] |
| Cc1ccc(CNS(=O)(=O)c2ccc3c(c2)N(C)CCO3)cc1 | inconclusive: 16.4 µM [falling, partial curve, poor fit] |
| O=C(Cn1ccc2ccccc2c1=O)NCC(=O)N1CCN(c2ccc(F)cc2)CC1 | inconclusive: 20.6 µM [falling, single point] |
| CCCCCCCCNC(=O)CC(NS(=O)(=O)c1ccc(NC(C)=O)cc1)C(C)C (stereo unspecified) | inconclusive: 20.6 µM [falling, single point] |
| CCC(=O)c1ccc(OCCN2CCOCC2)cc1 | inconclusive: 23.1 µM [activator, single point] |
| COc1ccc(-c2nc(NC(=O)c3n[nH]c(=O)c4ccccc34)sc2C)cc1 | inconclusive: 6.51 µM [activator, single point] |
| CC(C)(C)c1ccc(C(=O)NCCC(=O)Nc2ccc(S(=O)(=O)Nc3nccs3)cc2)cc1 | inactive |
| CCC1(c2ccccc2)NC(=O)N(CC(=O)Nc2ccc(OC)nc2)C1=O (stereo unspecified) | inactive |
| O=C(Nc1cccnc1)c1cccnc1Cl | inconclusive: 0.13 µM [activator, full curve, poor fit] |
| Cc1cc(C)cc(N/C(N)=N/c2nc(C)cc(C)n2)c1 | inactive |
| CCOC(=O)C1=C(C)NC(=O)N(C(C)=O)C1c1ccc(Cl)cc1 (stereo unspecified) | inconclusive: 25.9 µM [falling, partial curve] |

A second format for 4 compounds above.
CC(=O)Nc1ccc(S(=O)(=O)NC2=C(N3CCN(Cc4ccccc4)CC3)C(=O)c3ccccc3C2=O)cc1
  Potency: inactive
COc1ccc(-c2c(C)nc(N)nc2-c2ccc(OCc3ccc(C)cc3)cc2O)cc1OC
  Potency: inconclusive: 10.3 µM [falling, partial curve]
O=C(CCl)Nc1cc(S(=O)(=O)N2CCCCCC2)ccc1Cl
  Potency: inconclusive: 16.4 µM [falling, partial curve, poor fit]
CCc1ccc(OCC(=O)Nc2cc(-c3nc4cc(C)ccc4o3)ccc2C)cc1
  Potency: inconclusive: 2.31 µM [activator, full curve]
